Measured values as given in publication PMC5829277.
No constants are given. Whether binding was seen depends on the method and setting. For some assays here: Binding seen in cells or lysates may run through a third protein. Some results given as binding are weak or reduced against the parent protein; the word gives no strength. Sequences can lack the tags named with a protein.

Assays:
[1] = molecular target: T1, RGB1-nLuc (rice) (UniProt Q40687); assay: split reporter; split firefly luciferase (RGB1-nLuc plus cLuc fusions), transient expression in rice protoplasts, Luc normalised to 35S::REN
T1 sequence: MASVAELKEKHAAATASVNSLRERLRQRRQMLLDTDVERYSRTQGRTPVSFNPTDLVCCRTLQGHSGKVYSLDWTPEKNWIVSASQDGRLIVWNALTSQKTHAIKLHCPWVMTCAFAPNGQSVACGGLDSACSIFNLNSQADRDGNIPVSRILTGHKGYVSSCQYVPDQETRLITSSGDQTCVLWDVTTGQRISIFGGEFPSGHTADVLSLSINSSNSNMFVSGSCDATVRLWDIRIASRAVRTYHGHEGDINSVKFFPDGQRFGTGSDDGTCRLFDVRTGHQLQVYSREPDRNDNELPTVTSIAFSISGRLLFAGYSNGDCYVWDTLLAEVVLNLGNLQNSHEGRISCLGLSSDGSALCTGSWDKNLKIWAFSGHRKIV

[2] = molecular target: T1, RGB1-nLuc (rice); assay: split reporter; split firefly luciferase, competition: RGB1-nLuc plus cLuc-DEP1 or cLuc-GGC2 transiently expressed in protoplasts of ZH11, GS3-1OE and GS3-4OE, Luc normalised to 35S::REN
[3] = molecular target: T2, BD-RGB1 (pBRIDGE bait), yeast three-hybrid (rice) (UniProt Q40687); assay: yeast three-hybrid; pGADT7 prey vectors cotransformed with pBRIDGE bait vectors in yeast AH109; selected on SD/-LWM, interactions on SD/-LWMH, 5 mM 3-aminotriazole; liquid β-galactosidase assay with CPRG
T2 sequence: T1 sequence

[4] = molecular target: T3, RGB1 (G-beta subunit), yeast two-hybrid fusion (rice) (UniProt Q40687); assay: two-hybrid; Matchmaker Two-Hybrid System (Clontech), PGADT7 and PGBKT7 fusions cotransformed into yeast AH109; selected on SD/-LW, interactions on SD/-LWHA
T3 sequence: T1 sequence

[5] = molecular target: T4, RGB1, BiFC fusion (rice) (UniProt Q40687); assay: split reporter; BiFC, pSPYNE(R)173 and pSPYCE(MR) fusions in Arabidopsis protoplasts, incubated in the dark overnight, confocal fluorescence
T4 sequence: T1 sequence

B1: cLuc-DEP1 (protein, UniProt Q67UU9 1-426)
chain: MGEEAVVMEAPRPKSPPRYPDLCGRRRMQLEVQILSREITFLKDELHFLEGAQPVSRSGCIKEINEFVGTKHDPLIPTKRRRHRSCRLFRWIGSKLCICISCLCYCCKCSPKCKRPRCLNCSCSSCCDEPCCKPNCSACCAGSCCSPDCCSCCKPNCSCCKTPSCCKPNCSCSCPSCSSCCDTSCCKPSCTCFNIFSCFKSLYSCFKIPSCFKSQCNCSSPNCCTCTLPSCSCKGCACPSCGCNGCGCPSCGCNGCGCPSCGCNGCGLPSCGCNGCGSCSCAQCKPDCGSCSTNCCSCKPSCNGCCGEQCCRCADCFSCSCPRCSSCFNIFKCSCAGCCSSLCKCPCTTQCFSCQSSCCKRQPSCCKCQSSCCEGQPSCCEGHCCSLPKPSCPECSCGCVWSCKNCTEGCRCPRCRNPCCLSGCLC
With B1 the binding [1] was “binds” and the binding [2] was “binds”.

B2: AD-DEP1 (pGADT7-DEP1), yeast three-hybrid (protein, UniProt Q67UU9 1-426)
chain: B1 chain
B2 was tested, and the binding [3] was “binds”.

B3: DEP1, yeast two-hybrid fusion (protein, UniProt Q67UU9 1-426)
chain: B1 chain
For B3, the binding [4] was “binds”.

B4: DEP1, BiFC fusion (protein, UniProt Q67UU9 1-426)
chain: B1 chain
B4 was tested, and the binding [5] was “binds”.
